Some of the results follow. The main result of the screen is listed elsewhere. These columns were measured beside it and carry no call. Compounds called inactive in the main read-out are mostly missing here. The note in brackets gives the kind of curve behind each potency; many fits are weak.
Assay: qHTS Assay for Lipid Storage Modulators in Drosophila S3 Cells;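 on cell number change: cells counted by Cell Tracker Red CMTPX staining in the red channel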
Conditions: BODIPY lipid droplet fluorescence, 18-24 h; for cell number change: measured here: cell count max response, cells fed with added oleic acid
Method in brief: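 Drosophila S3 cells loaded with oleic acid (400 uM, as added) and compounds at several concentrations; lipid droplets imaged by 488-nm laser-scanning cytometry, 500–530 nm intensity and object ratio to cell channel. Percent activity normalized to 20 uM Triacsin C.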

[1] = measured here: lipid fluorescence (Fed channel) AC50, cells fed with added oleic acid
[2] = measured here: cell number channel AC50, cells fed with added oleic acid

Row | Compound | cell number change | AC50 [1] | AC50 [2]
1 | O=C(O)CC[C@@H](C(=O)O)N1C(=O)c2ccccc2C1=O | -16.2% | 16.4 µM [rising, single point] | –
2 | Cn1nc([N+](=O)[O-])nc1Oc1ccc(C(C)(C)C)cc1 | -11.1% | – | –
3 | CCNC(=O)COc1cccc(C(=O)NCc2ccccc2)c1 | 6.33% | 8.2 µM [falling, single point] | –
4 | CCN(CC)CCCN(C(=O)c1cccc(C)c1)c1nc(-c2ccc(OC)cc2)cs1 | 1.46% | 29.1 µM [falling, single point] | –
5 | CN(C)c1ccc(/C=N/N(CCC(=O)NC(C)(C)C)C2=NS(=O)(=O)c3ccccc32)cc1 | 17.6% | 2.59 µM [falling, full curve, poor fit] | –
6 | CCOc1ccc(N2CC(C(=O)N3CCc4ccccc43)CC2=O)cc1 (stereo not drawn) | 6.31% | – | –
7 | O=C(OC(C(=O)NCC1CCCO1)c1ccccn1)c1cccs1 (stereo not drawn) | 8.46% | 29.1 µM [rising, single point] | –
8 | Oc1ccc(Nc2nc(-c3ccc4ccccc4c3)cs2)cc1 | -55.9% | – | –
9 | CC(OC(=O)c1ccc2c(c1)OCCO2)C(=O)c1ccccc1 (stereo not drawn) | 125% | – | 20.6 µM [rising, single point]
10 | COc1ccc(C(=O)N2CCN=C2SCc2cccnc2)c(OC)c1 | -11.5% | 4.11 µM [falling, single point] | –
11 | N#CCC(=O)N/N=C\c1ccc(OC/C=C/c2ccccc2)cc1 | -2.48% | 11.6 µM [falling, single point] | 6.51 µM [rising, single point]
12 | O=C(Nc1ccccc1)N1CCN(c2cccc(C(F)(F)F)c2)CC1 | -12.1% | 20.6 µM [rising, partial curve] | –
13 | S=c1[nH]nc(COc2ccccc2)n1/N=C/c1ccc(Br)s1 | -25.4% | 0.164 µM [falling, full curve, poor fit] | –
14 | O=C(O)Cn1nc(C(F)(F)F)c2c1CCCC2 | -50.7% | 0.366 µM [falling, partial curve, poor fit] | 5.8 µM [falling, partial curve, poor fit]
15 | CCCCCC(=O)Nc1cc(S(=O)(=O)N2CCOCC2)ccc1Oc1ccc(OCC)cc1 | 2.45% | – | 3.26 µM [rising, single point]
16 | O=C(NCc1ccco1)c1ccccc1O | 34.4% | 29.1 µM [rising, single point] | 9.2 µM [rising, partial curve, poor fit]
17 | COc1ccccc1/C=C(/C(=O)OCC(=O)Nc1ccc(N(C)C)cc1)c1ccccc1 | -0.235% | 0.651 µM [falling, partial curve, poor fit] | –
18 | Cc1ccc(N2C(=S)N=C(Nc3ccccc3C)C23CCOC(C)(C)C3)cc1 (stereo not drawn) | -24.3% | 32.6 µM [falling, single point] | –

Part of the list above, as tab-separated lines:
Row	Compound	cell number change	AC50 [1]	AC50 [2]
8	Oc1ccc(Nc2nc(-c3ccc4ccccc4c3)cs2)cc1	-55.9%	–	–
16	O=C(NCc1ccco1)c1ccccc1O	34.4%	29.1 µM [rising, single point]	9.2 µM [rising, partial curve, poor fit]

The list goes on.

Row | Compound | cell number change | AC50 [1] | AC50 [2]
19 | CCCN(CC1CC1)C(=O)CSc1ncnc2sc(C)c(C)c12 | 113% | 0.731 µM [falling, single point] | –
20 | CC(Oc1ccc2c3c(c(=O)oc2c1)CCC3)C(=O)NCCCn1ccnc1 (stereo not drawn) | -13.4% | 29.1 µM [falling, single point] | –
21 | Cc1ccc(-c2cc(-c3ccccc3)[nH]c(=S)c2C#N)cc1 | 32.4% | – | 29.1 µM [rising, single point]
22 | O=C(CSc1ncc(-c2ccc(F)cc2)n1Cc1ccco1)Nc1ccc2c(c1)OCO2 | 7.37% | 0.291 µM [rising, partial curve, poor fit] | 0.164 µM [rising, full curve]
23 | c1ccc(CCCNc2ncnc3nc[nH]c23)cc1 | -15.8% | 29.1 µM [falling, single point] | –
24 | CN(CC(=O)Nc1ccc(S(=O)(=O)N2CCCC2)cc1)Cc1ccc(Cl)c(Cl)c1 | -50% | 18.4 µM [falling, partial curve, poor fit] | 2.91 µM [falling, full curve, poor fit]
25 | CCCC1=Nc2cc(C(=O)N3CCC(C(N)=O)CC3)ccc2Sc2ccccc21 | -1.15% | 0.82 µM [falling, single point] | –
26 | COc1ccc(NC(=O)CN(C)C(=O)Cc2ccc(S(=O)(=O)N3CCOCC3)s2)cc1 | -50% | 29.1 µM [rising, single point] | 29.1 µM [falling, single point]
27 | CCc1nnc(NC(=O)c2cccc(S(=O)(=O)N3CCc4ccccc43)c2)s1 | 2.76% | – | –
28 | COc1ccc(NC(=O)c2ccco2)cc1NC(=O)c1cccc(F)c1 | 10.1% | 10.3 µM [falling, partial curve] | –
29 | O=C(c1cc(-c2ccccn2)nc2ccc(Cl)cc12)N1CCN(CCc2ccccc2)CC1 | 16.9% | 0.731 µM [rising, single point] | –
30 | CCCCOC(=O)c1c(C)oc2ccc(NS(=O)(=O)c3ccc4c5c(cccc35)C(=O)N4)cc12 | 45.6% | 6.51 µM [rising, single point] | 29.1 µM [rising, single point]
31 | O=C(NCC1CCCO1)c1cc2n(n1)C(C(F)(F)F)CC(c1ccc(Br)cc1)N2 (stereo not drawn) | 16.2% | 23.1 µM [rising, single point] | –
32 | O=C(c1nsnc1-c1ccccc1O)N1CCCCC1 | -82.7% | – | 32.6 µM [falling, single point]
33 | Cc1cc2n(n1)C(c1ccccc1)Nc1ccccc1-2 (stereo not drawn) | – | 20.6 µM [rising, partial curve] | –
34 | CCCn1nc([N+](=O)[O-])c(C(C#N)c2nc3ccccc3o2)c(Cl)c1=O (stereo not drawn) | 20.1% | 23.1 µM [rising, single point] | –
35 | C#CCOCCOCCOCCNc1nc(N2CCN(C(=O)CCCCCCCCCCNC(=O)[C@H]([C@@H](C)CC)n3cc(CCCCCN)nn3)CC2)nc(N2CCN(C(=O)CCCCCCCCCCNC(=O)[C@@H]([C@H](C)CC)n3cc(CCCCCN)nn3)CC2)n1 | -94.3% | 23.1 µM [falling, partial curve, poor fit] | 23.1 µM [falling, partial curve]

— PubChem BioAssay AID2685 (National Center for Advancing Translational Sciences (NCATS), 2010)
